Some entries share one result that the patent states for a list of compounds. For at least one compound, name, drawing or mass did not settle the structure.
Assay: Aggregate radius and aggregation number (Nagg) from DOSY diffusion data (Stokes-Einstein, spherical model)
Format: physicochemical
Conditions: D2O, high concentrations
Description: The Stokes-Einstein equation provided estimated aggregate radii from the recorded diffusion coefficients. Further, Tanford's equations: lc≤lmax≈(0.154+0.1265n)nm and v≈(27.4+26.9n)×[…] nm^3 were used to calculate the critical volume (v) and maximum length (lmax) of the hydrocarbon tail based on the length of the lipid tail, n. Energy-minimized structures in MOE® were measured to find critical length (lc) values.
The average micelle radius (r) was calculated for each concentration of the surfactants (FIG. 9). Using molecular volume (V) calculations from MOE®, a spherical model was used to estimate aggregation numbers (Nagg) for each sample (FIG. 10). In general, these values correspond well to values determined by fluorescence quenching experiments. For samples such as decyl glucoside and dodecyl melibioside, Nagg values greater than 200 are representative of both the fact that larger aggregates will form at high concentrations, and that D2O (and 0.9% NaCl in H2O) induces the formation of higher order structures. Dodecyl melibioside is an example, where previous fluorescence quenching experiments show Nagg averages at 65 in concentrations over 20 mM. For these DOSY experiments Nagg is above 300 at only 5 mM, […], and more likely describing rod-like aggregates.

Row | Compound | Nagg (aggregation number)
1 | CCCCCCCCCCCCOC1O[C@H](CO[C@H]2O[C@H](CO)[C@H](O)[C@H](O)[C@H]2O)[C@@H](O)[C@H](O)[C@H]1O (some centres unmarked) [Dodecyl Melibioside] | greater than 200
2 | CCCCCCCCCCO[C@@H]1O[C@H](CO)[C@@H](O)[C@H](O)[C@H]1O [Decyl Glucoside] | greater than 200

From patent publication US12478585B2, “Micelles and vesicles for the delivery of glycopeptides” (ARIZONA BOARD OF REGENTS ON BEHALF OF THE UNIVERSITY OF …, priority 2017, dated 2025)
